This note sets out measurements from paper PMC8843744.

The chains behind the UniProt entries cited, without tags or fusion partners.
UniProt Q7Z4V5: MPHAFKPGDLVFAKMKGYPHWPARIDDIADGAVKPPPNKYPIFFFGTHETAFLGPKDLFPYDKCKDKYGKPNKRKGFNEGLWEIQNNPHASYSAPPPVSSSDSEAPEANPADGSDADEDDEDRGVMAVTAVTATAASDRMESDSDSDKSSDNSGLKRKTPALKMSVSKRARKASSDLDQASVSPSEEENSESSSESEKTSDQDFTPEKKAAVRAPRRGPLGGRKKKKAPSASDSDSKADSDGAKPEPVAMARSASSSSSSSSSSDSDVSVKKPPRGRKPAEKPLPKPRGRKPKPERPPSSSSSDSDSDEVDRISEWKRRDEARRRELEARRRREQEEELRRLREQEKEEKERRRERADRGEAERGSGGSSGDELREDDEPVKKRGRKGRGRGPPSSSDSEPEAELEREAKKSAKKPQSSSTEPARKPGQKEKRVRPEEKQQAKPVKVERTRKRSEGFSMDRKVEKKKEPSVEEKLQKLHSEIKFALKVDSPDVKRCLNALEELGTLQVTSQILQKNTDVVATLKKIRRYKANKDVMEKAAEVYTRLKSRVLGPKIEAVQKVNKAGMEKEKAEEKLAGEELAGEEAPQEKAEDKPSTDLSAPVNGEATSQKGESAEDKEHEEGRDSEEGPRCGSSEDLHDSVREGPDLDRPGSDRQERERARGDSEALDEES
UniProt Q8IUF8: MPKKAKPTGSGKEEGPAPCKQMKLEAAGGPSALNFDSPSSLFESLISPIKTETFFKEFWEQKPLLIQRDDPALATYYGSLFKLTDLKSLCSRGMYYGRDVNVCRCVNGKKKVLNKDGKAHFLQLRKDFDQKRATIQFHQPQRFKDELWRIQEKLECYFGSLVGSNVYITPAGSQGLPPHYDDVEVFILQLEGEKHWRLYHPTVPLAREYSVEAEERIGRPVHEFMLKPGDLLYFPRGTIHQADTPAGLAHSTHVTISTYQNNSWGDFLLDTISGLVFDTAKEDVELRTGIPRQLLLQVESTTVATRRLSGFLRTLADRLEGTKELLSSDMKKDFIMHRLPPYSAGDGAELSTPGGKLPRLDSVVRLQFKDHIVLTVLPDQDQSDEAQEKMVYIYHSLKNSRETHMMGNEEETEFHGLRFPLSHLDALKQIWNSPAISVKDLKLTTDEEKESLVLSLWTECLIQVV

Results are given in words; binding and its absence hold for the method and conditions named. Binding seen in cells or lysates may run through a third protein. These calls come from enrichment with a bait or labelling near it, and not all partners need be listed.

For the assay, the target named is hepatoma-derived growth factor 2 (HRP2), Flag-tagged (UniProt Q7Z4V5). Kind of assay: affinity purification with mass spectrometry; extracts in NP-40 lysis buffer (150 mM sodium chloride, 1% NP-40, 50 mM Tris, pH 8.0) on anti-Flag M2 affinity gel at 4°C overnight; eluted with Flag peptide; silver-stained bands analysed by LC-MS/MS; empty vector as control.

As to “MYC-induced nuclear antigen (MINA), in the cells expressing Flag-HRP2 (from UniProt Q8IUF8 1-465)”, the binding entry is “binds”.
